Where a chain is given by its changes, count along the chain named. Results are given in words; binding and its absence hold for the method and conditions named. In cells and extracts the contact can be indirect. Some binding calls cover weakened binding; strength is not graded here.
Tests used:
[1] = target: Myosin-10 (human) (Homo sapiens) (UniProt P35580); test: co-IP; precipitation with an anti-myosin10 antibody from human control and patient myotube samples; fibronectin detected
[2] = target: T1, FKRP (endogenous, healthy control human myotubes) (human (endogenous in human myotubes)) (UniProt Q9H9S5); test: co-IP; precipitation with a FKRP antibody (10 ug, protein-G dynabeads) from human control and patient myotube membrane-enriched samples; Myosin-10 detected
T1 sequence: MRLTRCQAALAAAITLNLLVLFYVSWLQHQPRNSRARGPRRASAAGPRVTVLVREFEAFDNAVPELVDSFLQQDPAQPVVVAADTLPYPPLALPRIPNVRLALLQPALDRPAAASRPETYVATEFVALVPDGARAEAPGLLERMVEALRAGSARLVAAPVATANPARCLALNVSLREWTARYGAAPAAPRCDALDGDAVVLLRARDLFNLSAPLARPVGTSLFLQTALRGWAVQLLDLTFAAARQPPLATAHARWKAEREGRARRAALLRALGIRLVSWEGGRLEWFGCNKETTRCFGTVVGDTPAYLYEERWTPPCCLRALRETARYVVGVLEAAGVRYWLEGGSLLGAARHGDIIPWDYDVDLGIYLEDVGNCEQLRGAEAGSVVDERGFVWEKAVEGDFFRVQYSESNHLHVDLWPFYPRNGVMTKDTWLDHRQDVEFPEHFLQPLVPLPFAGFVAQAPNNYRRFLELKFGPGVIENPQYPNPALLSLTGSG

Sequences of proteins named here, by UniProt entry; tags and fusion partners are left off. Residues count along the entry.
UniProt P35580: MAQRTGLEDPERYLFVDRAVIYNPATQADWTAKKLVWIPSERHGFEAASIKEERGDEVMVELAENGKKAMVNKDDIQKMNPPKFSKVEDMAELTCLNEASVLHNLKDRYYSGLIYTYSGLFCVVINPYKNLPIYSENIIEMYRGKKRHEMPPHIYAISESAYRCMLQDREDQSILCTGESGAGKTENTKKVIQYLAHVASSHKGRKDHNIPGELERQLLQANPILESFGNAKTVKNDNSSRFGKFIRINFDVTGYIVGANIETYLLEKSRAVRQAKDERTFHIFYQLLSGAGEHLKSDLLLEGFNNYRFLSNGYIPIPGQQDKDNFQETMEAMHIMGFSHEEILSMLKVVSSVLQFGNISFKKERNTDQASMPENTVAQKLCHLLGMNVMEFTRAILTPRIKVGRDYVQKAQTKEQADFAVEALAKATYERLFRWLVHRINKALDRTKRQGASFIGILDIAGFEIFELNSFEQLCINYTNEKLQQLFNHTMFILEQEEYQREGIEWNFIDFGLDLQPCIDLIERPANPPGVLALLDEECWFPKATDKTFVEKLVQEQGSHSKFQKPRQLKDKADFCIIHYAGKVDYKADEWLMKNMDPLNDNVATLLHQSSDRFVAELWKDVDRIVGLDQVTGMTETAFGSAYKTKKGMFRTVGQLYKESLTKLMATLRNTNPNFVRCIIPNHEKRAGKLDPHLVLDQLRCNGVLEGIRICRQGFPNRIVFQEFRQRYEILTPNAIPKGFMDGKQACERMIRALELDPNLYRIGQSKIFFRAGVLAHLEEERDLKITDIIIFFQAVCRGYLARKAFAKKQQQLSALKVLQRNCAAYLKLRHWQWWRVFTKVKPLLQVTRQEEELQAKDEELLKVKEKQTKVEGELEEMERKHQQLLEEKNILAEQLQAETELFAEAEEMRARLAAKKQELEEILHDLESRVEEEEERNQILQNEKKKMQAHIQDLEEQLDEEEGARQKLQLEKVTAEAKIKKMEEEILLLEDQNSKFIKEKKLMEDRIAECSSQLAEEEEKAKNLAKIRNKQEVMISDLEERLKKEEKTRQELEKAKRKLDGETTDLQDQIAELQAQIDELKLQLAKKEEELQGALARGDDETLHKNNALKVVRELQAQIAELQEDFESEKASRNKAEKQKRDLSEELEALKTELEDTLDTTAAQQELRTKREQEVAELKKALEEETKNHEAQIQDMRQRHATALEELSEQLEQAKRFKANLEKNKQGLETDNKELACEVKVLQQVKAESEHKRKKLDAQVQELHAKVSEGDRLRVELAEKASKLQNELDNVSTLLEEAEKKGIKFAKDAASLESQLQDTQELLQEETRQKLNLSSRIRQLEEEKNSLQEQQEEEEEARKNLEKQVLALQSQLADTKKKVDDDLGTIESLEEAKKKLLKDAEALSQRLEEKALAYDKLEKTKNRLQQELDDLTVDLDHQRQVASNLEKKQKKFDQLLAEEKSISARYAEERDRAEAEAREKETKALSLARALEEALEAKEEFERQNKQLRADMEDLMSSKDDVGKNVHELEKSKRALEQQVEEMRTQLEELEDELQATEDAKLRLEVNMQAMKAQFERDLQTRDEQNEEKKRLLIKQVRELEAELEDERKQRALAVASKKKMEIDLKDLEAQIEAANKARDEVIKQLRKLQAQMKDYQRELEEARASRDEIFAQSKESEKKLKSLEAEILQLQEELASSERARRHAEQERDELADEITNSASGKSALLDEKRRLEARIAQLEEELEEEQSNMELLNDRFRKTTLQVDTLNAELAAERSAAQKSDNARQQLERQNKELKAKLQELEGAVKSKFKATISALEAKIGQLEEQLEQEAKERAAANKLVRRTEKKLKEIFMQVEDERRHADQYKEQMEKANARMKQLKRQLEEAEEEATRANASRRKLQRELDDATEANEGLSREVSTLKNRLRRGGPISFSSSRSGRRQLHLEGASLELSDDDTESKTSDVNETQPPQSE
UniProt P02751, residues 32-2477: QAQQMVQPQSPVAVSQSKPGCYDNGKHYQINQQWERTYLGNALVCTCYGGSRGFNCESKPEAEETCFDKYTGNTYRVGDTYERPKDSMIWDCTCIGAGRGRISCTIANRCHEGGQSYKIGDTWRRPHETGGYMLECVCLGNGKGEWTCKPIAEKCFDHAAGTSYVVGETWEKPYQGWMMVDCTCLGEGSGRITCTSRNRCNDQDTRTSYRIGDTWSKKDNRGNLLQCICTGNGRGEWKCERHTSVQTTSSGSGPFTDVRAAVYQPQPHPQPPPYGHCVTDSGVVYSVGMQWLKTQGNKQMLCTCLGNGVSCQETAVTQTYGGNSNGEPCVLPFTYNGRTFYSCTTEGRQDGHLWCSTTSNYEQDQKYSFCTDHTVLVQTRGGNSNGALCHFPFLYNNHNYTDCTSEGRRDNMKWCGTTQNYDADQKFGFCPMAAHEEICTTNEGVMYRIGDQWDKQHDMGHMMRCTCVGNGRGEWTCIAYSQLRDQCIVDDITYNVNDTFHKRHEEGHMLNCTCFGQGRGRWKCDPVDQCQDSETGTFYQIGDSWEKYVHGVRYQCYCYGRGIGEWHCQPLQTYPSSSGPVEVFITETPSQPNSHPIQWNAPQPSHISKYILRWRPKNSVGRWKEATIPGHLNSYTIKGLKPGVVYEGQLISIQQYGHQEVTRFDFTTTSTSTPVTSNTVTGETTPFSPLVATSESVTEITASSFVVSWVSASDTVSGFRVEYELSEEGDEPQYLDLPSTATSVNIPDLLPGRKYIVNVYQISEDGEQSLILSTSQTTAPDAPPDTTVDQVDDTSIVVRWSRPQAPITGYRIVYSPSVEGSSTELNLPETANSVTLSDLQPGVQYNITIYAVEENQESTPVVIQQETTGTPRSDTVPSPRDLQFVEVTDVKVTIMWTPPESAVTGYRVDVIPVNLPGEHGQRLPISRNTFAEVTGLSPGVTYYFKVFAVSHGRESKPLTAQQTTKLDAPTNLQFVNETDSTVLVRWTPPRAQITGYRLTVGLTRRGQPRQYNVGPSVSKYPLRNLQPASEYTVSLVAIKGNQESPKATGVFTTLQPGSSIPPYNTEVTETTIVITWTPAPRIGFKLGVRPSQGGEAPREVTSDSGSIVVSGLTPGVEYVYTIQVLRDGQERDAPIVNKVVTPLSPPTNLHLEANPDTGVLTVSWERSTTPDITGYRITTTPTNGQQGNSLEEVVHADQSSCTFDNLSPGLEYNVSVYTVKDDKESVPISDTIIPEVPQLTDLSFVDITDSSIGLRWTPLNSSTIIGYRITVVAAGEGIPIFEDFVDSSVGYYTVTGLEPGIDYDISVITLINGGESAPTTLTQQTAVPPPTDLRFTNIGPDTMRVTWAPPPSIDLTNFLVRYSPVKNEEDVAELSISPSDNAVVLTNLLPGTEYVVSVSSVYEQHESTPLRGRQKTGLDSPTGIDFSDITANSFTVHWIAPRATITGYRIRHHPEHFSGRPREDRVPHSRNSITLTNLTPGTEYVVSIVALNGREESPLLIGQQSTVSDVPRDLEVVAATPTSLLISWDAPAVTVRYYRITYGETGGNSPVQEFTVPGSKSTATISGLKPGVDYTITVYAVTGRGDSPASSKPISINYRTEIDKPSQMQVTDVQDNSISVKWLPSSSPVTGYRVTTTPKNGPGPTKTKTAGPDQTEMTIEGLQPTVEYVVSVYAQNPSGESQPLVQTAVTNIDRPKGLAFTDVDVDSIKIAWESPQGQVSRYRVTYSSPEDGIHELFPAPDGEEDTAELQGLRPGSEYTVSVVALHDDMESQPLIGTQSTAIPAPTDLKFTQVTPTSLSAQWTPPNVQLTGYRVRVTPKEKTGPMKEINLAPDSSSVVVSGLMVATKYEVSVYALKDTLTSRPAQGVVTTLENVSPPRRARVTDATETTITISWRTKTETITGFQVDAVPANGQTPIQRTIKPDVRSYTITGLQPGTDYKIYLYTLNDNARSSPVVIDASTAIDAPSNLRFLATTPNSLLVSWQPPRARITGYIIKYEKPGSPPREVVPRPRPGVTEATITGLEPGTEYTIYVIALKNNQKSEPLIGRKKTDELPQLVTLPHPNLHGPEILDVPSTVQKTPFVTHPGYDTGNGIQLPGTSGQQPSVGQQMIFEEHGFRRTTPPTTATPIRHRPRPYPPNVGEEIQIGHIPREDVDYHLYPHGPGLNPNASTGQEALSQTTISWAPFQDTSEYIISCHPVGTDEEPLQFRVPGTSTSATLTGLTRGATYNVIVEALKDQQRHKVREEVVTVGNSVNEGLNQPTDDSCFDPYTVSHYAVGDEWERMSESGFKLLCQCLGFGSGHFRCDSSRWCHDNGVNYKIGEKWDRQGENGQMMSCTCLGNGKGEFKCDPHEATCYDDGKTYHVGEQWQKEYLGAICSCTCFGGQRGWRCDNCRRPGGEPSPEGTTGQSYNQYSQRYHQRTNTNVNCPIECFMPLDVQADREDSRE

[3] = target: T2, FKRP of the LGMD2I patient myotubes (p.Leu276Ile) (human (endogenous in patient myotubes)) (UniProt Q9H9S5); test: as above
T2 sequence: T1 sequence with L276I

Substance | binding [1] | binding [2] | binding [3]
Fibronectin (endogenous, human myotubes) (from UniProt P02751 32-2477) | binds |  | 
Myosin-10 (human) (from UniProt P35580 1-1976) |  | binds | no binding

Reference: paper PMC8134429
